# Experimental data taken from PMC3722110.
# Amino acid sequences for entries named in this document (tags omitted). A change or cut given only in a name is not applied to a line headed by its entry.
# UniProt P03023, whole entry: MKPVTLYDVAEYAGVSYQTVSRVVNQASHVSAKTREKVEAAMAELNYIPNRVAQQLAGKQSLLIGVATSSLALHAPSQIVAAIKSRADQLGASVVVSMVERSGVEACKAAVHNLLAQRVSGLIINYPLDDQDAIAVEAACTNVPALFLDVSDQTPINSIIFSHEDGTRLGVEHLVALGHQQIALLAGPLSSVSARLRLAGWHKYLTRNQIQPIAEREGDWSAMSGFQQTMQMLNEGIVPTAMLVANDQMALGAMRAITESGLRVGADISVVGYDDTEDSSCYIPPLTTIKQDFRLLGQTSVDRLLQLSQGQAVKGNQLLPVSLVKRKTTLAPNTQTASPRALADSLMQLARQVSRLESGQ
# For at least one entry, the source does not settle the construct or the ends of the probe. The direction of at least one scale is not stated here.
# How the values were obtained:
# LacI W220F (LacIWF) = LacI W220F (LacIWF) (UniProt P03023); experiment: differential scanning fluorimetry (thermal shift); settings: 2.5 uM operator DNA, apo Tm 49.1±0.1 °C, protein storage buffer 200 mM Tris-HCl, 200 mM KCl, 10 mM EDTA, 3 mM DTT, pH 7.4, thermal melt, recombinant protein, protein details: C-terminal His6
# LacI WT = LacI WT (UniProt P03023); experiment: differential scanning fluorimetry (thermal shift); settings: 2.5 uM operator DNA, apo Tm 52.4±0.3 °C, protein storage buffer 200 mM Tris-HCl, 200 mM KCl, 10 mM EDTA, 3 mM DTT, pH 7.4, thermal melt, recombinant protein, protein details: C-terminal His6
sequence,measurement,setting,value
TGTTGTGTGGAATTGTGAGCGGATAACAATTTCACACAG (double strand) [lac operator DNA (LacO1f/LacO1r)],binding signal (°C (Tm increase)),LacI W220F (LacIWF),12.8
same,binding signal (°C (Tm increase)),LacI WT,7.7
